PubChem BioAssay AID1508597 | Cure First, 2020

- Purpose: 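Knock-downs altering ovarian cancer cell survival with or without PARP inhibitor rucaparib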 (primary screen)
- Cells: human ovarian carcinoma lines grown from tumours: OCI-P5x (papillary serous) and OCI-C5x (clear cell)
- Reagents: siRNA pool against human genes, 1.25 pmol siRNA per well
- Time to read-out: 72 h or 96 h, depending on the cell culture
- Conditions: rucaparib 20 µM (about IC30) or vehicle, present until read-out
- Rucaparib or vehicle: Vehicle
- Cell line: OCI-P5x (serous)
- Measurement: 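ATP luminescence measured at 72 or 96 h according to the culture, then normalised and expressed as percent viability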
- Scale: viability, normalised: higher = more viable cells remaining
- Active means: 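a well counts as a hit if its normalised viability is under 80 percent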
- Calls: active = viability under 80%; inactive = viability 80% or more
This is a random part of the about 2,100 reagents, in one setting of the screen. 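Calls flag viability under 80% in either arm, not effects specific to rucaparib; the reference for percent is not stated.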 Entries without a mark were called inactive. Not stated in the record: the 100% reference.

| gene | technical replicate | viability, normalised (%) |
| --- | --- | --- |
| XRCC4 | 1 | 83 |
| XRCC4 | 2 | 80.5 |
| XRCC4 | 3 | 75.4 (active) |
| TIPARP | 1 | 57.2 (active) |
| TIPARP | 2 | 43.2 (active) |
| TIPARP | 3 | 43.3 (active) |
| ALDH18A1 | 1 | 107 |
| ALDH18A1 | 2 | 96.7 |
| ALDH18A1 | 3 | 87 |
| OXSM | 1 | 81.9 |
| OXSM | 2 | 61.7 (active) |
| OXSM | 3 | 71 (active) |
| S100A6 | 1 | 51 (active) |
| S100A6 | 2 | 59.9 (active) |
| S100A6 | 3 | 66.5 (active) |
| H4C15 | 1 | 73.1 (active) |
| H4C15 | 2 | 79 (active) |
| H4C15 | 3 | 74.4 (active) |
| ARRB1 | 1 | 75.6 (active) |
| ARRB1 | 2 | 81.2 |
| ARRB1 | 3 | 81.1 |
| COX6C | 1 | 68.7 (active) |
| COX6C | 2 | 73.5 (active) |
| COX6C | 3 | 85.7 |
| SND1 | 1 | 44.4 (active) |
| SND1 | 2 | 52.5 (active) |
| SND1 | 3 | 62.8 (active) |

A stretch from the list above, as a working copy:
| gene | technical replicate | viability, normalised (%) |
| --- | --- | --- |
| ARRB1 | 1 | 75.6 (active) |
| ARRB1 | 2 | 81.2 |
| ARRB1 | 3 | 81.1 |
| COX6C | 1 | 68.7 (active) |
| COX6C | 2 | 73.5 (active) |
| COX6C | 3 | 85.7 |
| SND1 | 1 | 44.4 (active) |
| SND1 | 2 | 52.5 (active) |
| SND1 | 3 | 62.8 (active) |

The results go on.
| gene | technical replicate | viability, normalised (%) |
| --- | --- | --- |
| DEK | 1 | 41.6 (active) |
| DEK | 2 | 49.7 (active) |
| DEK | 3 | 43.8 (active) |
| NRK | 1 | 83.5 |
| NRK | 2 | 69.2 (active) |
| NRK | 3 | 78.2 (active) |
| DYRK1B | 1 | 70 (active) |
| DYRK1B | 2 | 62.6 (active) |
| DYRK1B | 3 | 86 |
| RAI1 | 1 | 64.1 (active) |
| RAI1 | 2 | 71.3 (active) |
| RAI1 | 3 | 70.9 (active) |
| SH3KBP1 | 1 | 70 (active) |
| SH3KBP1 | 2 | 67.3 (active) |
| SH3KBP1 | 3 | 89.8 |
| RYR1 | 1 | 53.2 (active) |
| RYR1 | 2 | 49.8 (active) |
| RYR1 | 3 | 67.2 (active) |
| TRPM6 | 1 | 77.6 (active) |
| TRPM6 | 2 | 72.2 (active) |
| TRPM6 | 3 | 68.5 (active) |
| HDAC7 | 1 | 69.3 (active) |
| HDAC7 | 2 | 87.1 |
| HDAC7 | 3 | 78.8 (active) |
| ALPK2 | 1 | 96.7 |
| ALPK2 | 2 | 115 |
| ALPK2 | 3 | 107 |
| PRKN | 1 | 53.8 (active) |
| PRKN | 2 | 79.8 (active) |
| PRKN | 3 | 53 (active) |
